Source: PMC4206862
Read-outs that look alike come from different tables or passages of the source. No constants are given. Whether binding was seen depends on the method and setting. In cells and extracts the contact can be indirect. These calls come from enrichment with a bait or labelling near it, and not all partners need be listed.

Chains of the proteins cited; added tags and fusions are not shown.
UniProt P55060: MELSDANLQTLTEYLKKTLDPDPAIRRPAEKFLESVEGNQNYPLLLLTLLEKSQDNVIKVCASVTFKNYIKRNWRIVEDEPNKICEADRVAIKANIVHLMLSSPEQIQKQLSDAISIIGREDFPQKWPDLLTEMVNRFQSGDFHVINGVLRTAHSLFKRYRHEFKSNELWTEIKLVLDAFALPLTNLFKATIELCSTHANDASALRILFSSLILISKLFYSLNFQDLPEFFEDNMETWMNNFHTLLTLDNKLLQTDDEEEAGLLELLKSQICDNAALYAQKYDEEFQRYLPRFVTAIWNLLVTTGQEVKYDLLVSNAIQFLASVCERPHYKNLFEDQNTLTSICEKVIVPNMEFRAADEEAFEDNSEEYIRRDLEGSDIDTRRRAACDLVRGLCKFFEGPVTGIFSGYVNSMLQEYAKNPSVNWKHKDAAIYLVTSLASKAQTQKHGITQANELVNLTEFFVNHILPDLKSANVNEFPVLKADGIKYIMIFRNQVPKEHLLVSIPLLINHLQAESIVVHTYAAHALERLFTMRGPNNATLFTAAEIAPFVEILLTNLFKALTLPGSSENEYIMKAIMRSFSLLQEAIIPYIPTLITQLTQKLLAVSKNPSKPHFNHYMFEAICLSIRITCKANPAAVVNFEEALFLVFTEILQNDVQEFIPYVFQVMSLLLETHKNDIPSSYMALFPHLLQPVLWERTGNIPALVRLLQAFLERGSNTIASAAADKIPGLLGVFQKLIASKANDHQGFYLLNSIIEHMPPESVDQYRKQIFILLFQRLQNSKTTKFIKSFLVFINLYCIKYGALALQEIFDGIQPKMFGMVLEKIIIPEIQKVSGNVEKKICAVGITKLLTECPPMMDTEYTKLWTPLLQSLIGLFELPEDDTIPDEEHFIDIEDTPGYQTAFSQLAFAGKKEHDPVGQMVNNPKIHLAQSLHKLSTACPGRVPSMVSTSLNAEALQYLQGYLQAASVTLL
UniProt Q8WUM4: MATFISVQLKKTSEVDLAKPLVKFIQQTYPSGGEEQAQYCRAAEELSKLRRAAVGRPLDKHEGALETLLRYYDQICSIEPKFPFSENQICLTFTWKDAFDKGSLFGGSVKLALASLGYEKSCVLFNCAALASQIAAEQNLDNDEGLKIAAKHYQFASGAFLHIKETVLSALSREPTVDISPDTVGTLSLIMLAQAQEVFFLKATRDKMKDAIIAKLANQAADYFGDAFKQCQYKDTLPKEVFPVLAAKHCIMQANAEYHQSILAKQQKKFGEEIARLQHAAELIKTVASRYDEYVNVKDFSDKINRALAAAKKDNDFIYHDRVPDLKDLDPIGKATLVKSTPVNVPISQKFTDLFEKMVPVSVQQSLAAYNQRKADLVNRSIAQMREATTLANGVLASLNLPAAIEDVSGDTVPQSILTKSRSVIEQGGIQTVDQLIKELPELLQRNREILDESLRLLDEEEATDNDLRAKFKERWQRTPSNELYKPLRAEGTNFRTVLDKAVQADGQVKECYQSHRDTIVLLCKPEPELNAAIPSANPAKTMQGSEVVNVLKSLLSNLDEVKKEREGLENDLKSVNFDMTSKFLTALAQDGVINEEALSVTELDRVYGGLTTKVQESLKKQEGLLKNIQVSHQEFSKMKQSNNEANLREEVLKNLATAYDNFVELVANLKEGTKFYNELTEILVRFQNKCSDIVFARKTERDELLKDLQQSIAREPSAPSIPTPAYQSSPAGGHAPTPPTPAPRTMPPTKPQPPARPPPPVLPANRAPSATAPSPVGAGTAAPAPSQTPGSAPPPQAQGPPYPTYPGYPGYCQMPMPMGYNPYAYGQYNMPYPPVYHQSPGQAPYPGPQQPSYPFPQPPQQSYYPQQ
UniProt P50990: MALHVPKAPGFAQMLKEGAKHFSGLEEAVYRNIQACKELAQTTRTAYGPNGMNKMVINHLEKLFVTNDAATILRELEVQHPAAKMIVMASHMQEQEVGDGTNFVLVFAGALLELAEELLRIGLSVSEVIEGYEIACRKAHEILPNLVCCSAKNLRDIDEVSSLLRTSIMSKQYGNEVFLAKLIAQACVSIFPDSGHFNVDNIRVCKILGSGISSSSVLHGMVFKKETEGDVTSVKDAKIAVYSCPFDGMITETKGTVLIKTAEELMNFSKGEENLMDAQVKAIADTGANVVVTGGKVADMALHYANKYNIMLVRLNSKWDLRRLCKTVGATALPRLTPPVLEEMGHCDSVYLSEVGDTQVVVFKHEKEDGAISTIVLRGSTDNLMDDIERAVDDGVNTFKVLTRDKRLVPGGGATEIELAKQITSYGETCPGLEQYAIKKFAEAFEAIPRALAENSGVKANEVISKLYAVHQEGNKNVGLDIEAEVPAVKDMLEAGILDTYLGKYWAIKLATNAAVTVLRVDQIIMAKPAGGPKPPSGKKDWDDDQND
UniProt Q99832: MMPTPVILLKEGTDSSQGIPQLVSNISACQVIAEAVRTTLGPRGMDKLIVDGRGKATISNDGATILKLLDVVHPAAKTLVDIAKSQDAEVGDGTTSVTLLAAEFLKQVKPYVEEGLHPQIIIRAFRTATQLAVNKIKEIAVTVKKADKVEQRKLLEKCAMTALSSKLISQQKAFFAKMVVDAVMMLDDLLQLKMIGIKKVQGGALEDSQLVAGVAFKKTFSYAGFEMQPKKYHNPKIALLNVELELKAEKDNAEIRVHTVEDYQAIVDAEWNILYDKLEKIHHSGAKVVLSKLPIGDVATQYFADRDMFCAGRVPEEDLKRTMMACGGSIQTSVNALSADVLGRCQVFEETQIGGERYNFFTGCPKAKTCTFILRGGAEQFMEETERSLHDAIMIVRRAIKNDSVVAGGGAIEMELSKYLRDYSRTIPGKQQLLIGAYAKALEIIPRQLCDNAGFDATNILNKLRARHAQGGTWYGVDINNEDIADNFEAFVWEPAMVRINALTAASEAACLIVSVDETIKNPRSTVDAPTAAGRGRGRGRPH

B1: Methionyl-tRNA sythatase (protein, UniProt P56192 1-900)
chain: MRLFVSDGVPGCLPVLAAAGRARGRAEVLISTVGPEDCVVPFLTRPKVPVLQLDSGNYLFSTSAICRYFFLLSGWEQDDLTNQWLEWEATELQPALSAALYYLVVQGKKGEDVLGSVRRALTHIDHSLSRQNCPFLAGETESLADIVLWGALYPLLQDPAYLPEELSALHSWFQTLSTQEPCQRAAETVLKQQGVLALRPYLQKQPQPSPAEGRAVTNEPEEEELATLSEEEIAMAVTAWEKGLESLPPLRPQQNPVLPVAGERNVLITSALPYVNNVPHLGNIIGCVLSADVFARYSRLRQWNTLYLCGTDEYGTATETKALEEGLTPQEICDKYHIIHADIYRWFNISFDIFGRTTTPQQTKITQDIFQQLLKRGFVLQDTVEQLRCEHCARFLADRFVEGVCPFCGYEEARGDQCDKCGKLINAVELKKPQCKVCRSCPVVQSSQHLFLDLPKLEKRLEEWLGRTLPGSDWTPNAQFITRSWLRDGLKPRCITRDLKWGTPVPLEGFEDKVFYVWFDATIGYLSITANYTDQWERWWKNPEQVDLYQFMAKDNVPFHSLVFPCSALGAEDNYTLVSHLIATEYLNYEDGKFSKSRGVGVFGDMAQDTGIPADIWRFYLLYIRPEGQDSAFSWTDLLLKNNSELLNNLGNFINRAGMFVSKFFGGYVPEMVLTPDDQRLLAHVTLELQHYHQLLEKVRIRDALRSILTISRHGNQYIQVNEPWKRIKGSEADRQRAGTVTGLAVNIAALLSVMLQPYMPTVSATIQAQLQLPPPACSILLTNFLCTLPAGHQIGTVSPLFQKLENDQIESLRQRFGGGQAKTSPKPAVVETVTTAKPQQIQALMDEVTKQGNIVRELKAQKADKNEVAAEVAKLLDLKKQLAVAEGKPPEAPKGKKKK
B2: Coatomer subunit delta (protein, UniProt P48444 1-511)
chain: MVLLAAAVCTKAGKAIVSRQFVEMTRTRIEGLLAAFPKLMNTGKQHTFVETESVRYVYQPMEKLYMVLITTKNSNILEDLETLRLFSRVIPEYCRALEENEISEHCFDLIFAFDEIVALGYRENVNLAQIRTFTEMDSHEEKVFRAVRETQEREAKAEMRRKAKELQQARRDAERQGKKAPGFGGFGSSAVSGGSTAAMITETIIETDKPKVAPAPARPSGPSKALKLGAKGKEVDNFVDKLKSEGETIMSSSMGKRTSEATKMHAPPINMESVHMKIEEKITLTCGRDGGLQNMELHGMIMLRISDDKYGRIRLHVENEDKKGVQLQTHPNVDKKLFTAESLIGLKNPEKSFPVNSDVGVLKWRLQTTEESFIPLTINCWPSESGNGCDVNIEYELQEDNLELNDVVITIPLPSGVGAPVIGEIDGEYRHDSRRNTLEWCLPVIDAKNKSGSLEFSIAGQPNDFFPVQVSFVSKKNYCNIQVTKVTQVDGNSPVRFSTETTFLVDKYEIL

Experiments:
[1] = molecular target: Flag-epitope tagged FTO (fat mass and obesity-associated protein), WT full-length (UniProt Q9C0B1); assay: affinity purification with mass spectrometry; IP of Flag-epitope tagged FTO from lysates of transiently transfected HEK-293 cells; gel bands digested, LC-MSMS; control: vector-transfected cells
[2] = molecular target: Flag-epitope tagged FTO (fat mass and obesity-associated protein), WT full-length (UniProt Q9C0B1); assay: as above; remark: listed apart in the source

Molecule	binding [1]	binding [2]
Exportin 2 (XPO2), endogenous in HEK-293 cells (from UniProt P55060 1-971)	binds	
Programmed cell death 6-interacting protein (from UniProt Q8WUM4 1-868)	binds	
T-complex protein 1 subunit theta (from UniProt P50990 1-548)	binds	
T-complex protein subunit eta (from UniProt Q99832 1-543)	binds	
B1		binds
B2		binds
